The campaign covered roughly 410,000 compounds. About 18,000 (4.4%) were called active. The inconclusive results got no clear call from the source; some entries with a clear call stand among them for comparison. No stated cut-off is given here; in the data, active means activity change below about -60%; inconclusive means no clear call, values can overlap the other calls; inactive means above about -39%.
Assay: qHTS Assay for inhibitors of the human cytomegalovirus (HCMV)
Conditions: HFF cells, HCMV-luciferase reporter, 72 h; at 57.5 µM; hits give low values
How it was run: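 Human foreskin fibroblasts infected with luciferase-reporter HCMV at MOI 1 PFU/cell, compounds at two doses. Luciferase measured 72 h post infection; normalized to buffer-only basal and Salinomycin (10uM) controls.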
On the % scale 0 is the no-effect control and ±100 the full control effect.

| SMILES | activity change, negative = inhibition |
| --- | --- |
| Cc1cc(C)nc(SCc2nnc(SCC(=O)Nc3nccs3)n2C)n1 | inactive: 8.25% |
| COc1ccc(OCC(=O)N(Cc2cccs2)C2CCS(=O)(=O)C2)cc1 (centres undefined) | inconclusive: -41% |
| CCc1ccccc1Nc1nc(-c2cccnc2)cs1 | inconclusive: -40.5% |
| Cc1cccc(OCC(=O)OCC(=O)Nc2sccc2C(N)=O)c1 | inconclusive: -44% |
| OCC1(Cc2ccccc2C(F)(F)F)CCN(Cc2ccc3c(c2)CCO3)CC1 | active: -75.7% |
| Cc1onc(-c2ccccc2)c1C(=O)Nc1sc2c(c1C#N)CCC2 | inconclusive: -53.7% |
| O=C(C(=O)N1CCC(CNC(=O)C2COc3ccccc3O2)CC1)c1cccs1 (centres undefined) | inconclusive: -40.3% |
| O=C1CCN(Cc2ccccc2)CCN1[C@H](COc1ccccc1)c1ccccc1 | inactive: 20.9% |
| COc1cccc(NC(=O)c2ccc(-n3cnnn3)cc2)c1 | inconclusive: -54.8% |
| CCCOc1cccc(C(=O)NC(=S)Nc2cccc(C(F)(F)F)c2)c1 | inconclusive: -50.8% |
| Cc1ccc(Sc2cc(C)nc(-c3ccccn3)n2)cc1 | active: -75.8% |
| O=C(NCc1ccc(Cl)cc1)C(=O)c1cn(CC(=O)N2CCOCC2)c2ccccc12 | active: -86.8% |
| Cc1ccc(-c2nnc(OCc3nc4ccccc4n3C)c3ccccc23)cc1 | inactive: -20% |
| Cc1cccc(-n2c(-c3ccco3)nc3ccccc3c2=O)c1C | active: -75.7% |
| CCOC(=O)C1=C(COC(=O)COc2ccc(OCC)cc2)NC(=O)NC1C (centres undefined) | inactive: -13.2% |
| CN(Cc1cnccn1)C(=O)C1CCC(=O)N(CCc2ccccc2)C1 (centres undefined) | inactive: 3.72% |
| Cc1ccc(C(=O)NS(=O)(=O)c2ccc(N=NN(C)C)cc2)cc1 | inconclusive: -40.9% |
| Cc1ccnc2nc(C(=O)OCC(=O)Nc3ccc([N+](=O)[O-])cc3Br)nn12 | inconclusive: -48.1% |
| Cc1cnc2ccc(F)cc2c1 | inactive: 9.24% |
| O=C(CN(CC(=O)Nc1ccc(F)cc1)CC(=O)Nc1ccc(F)cc1)Nc1ccc(F)cc1 | inactive: 51.7% |

| SMILES | activity change, negative = inhibition |
| --- | --- |
| Cc1ccc(C(=O)NNC(=O)c2ccc(C)cc2)cc1 | inconclusive: -46.2% |
| Cc1ccc(S(=O)(=O)C2CS(=O)(=O)CC2O)cc1 (centres undefined) | inactive: -26.4% |
| COC(=O)c1ccc(-c2ccc(C(c3c(C)[nH][nH]c3=O)c3c(C)[nH][nH]c3=O)o2)cc1 | inconclusive: -57.4% |
| Cc1ccccc1OCC(=O)Nc1ccc2nc(SCC(=O)N3CCOCC3)sc2c1 | active: -78.2% |
| O=C1CNC(=O)/C1=C/c1ccccc1 | inconclusive: -46.2% |
| Cn1c(-c2ccc(C(C)(C)C)cc2)n[nH]c1=S | inactive: 38.9% |
| CC(=O)Nc1ccc(S(=O)(=O)N[C@@H](C)C(=O)OCc2ccc(Cl)cc2)cc1 | inactive: 2.49% |
| CCOC(=O)c1nnn(-c2nonc2N)c1-c1ccccc1 | inconclusive: -56.4% |
| Nc1c(C(=O)NCC2CCCO2)sc2nc3c(c(-c4ccco4)c12)CC/C3=C\c1ccco1 (centres undefined) | inconclusive: -53% |
| CCC(Cn1nnc2ccccc2c1=O)NC(=O)Nc1ccccc1Cl (centres undefined) | inactive: 1.44% |
| COc1ccc(CCNC(=O)c2cnc3ccccn3c2=O)cc1 | inactive: 48.8% |
| O=C(O)c1cnn(-c2nc(-c3cccc([N+](=O)[O-])c3)cs2)c1C(F)(F)F | active: -93.8% |
| Cc1cc(C)c(C)c(S(=O)(=O)Nc2ccc(C(N)=O)cc2)c1C | inconclusive: -50.7% |
| COc1cc(S(=O)(=O)Nc2ccccc2C)ccc1NC(=O)c1ccncc1 | active: -71.6% |
| COc1cc(NCCCCCCN)c2ncccc2c1OC | inconclusive: -41.8% |
| CC1(C)NC(=O)N(CCCCOc2ccc(Cl)cc2C=O)C1=O | active: -60% |
| Cc1cc(C)c(C(=O)c2ccc(C(=O)N3CCCCC3)cc2)c(C)c1 | inconclusive: -59.6% |
| CN1CCN(C(=O)/C(=C/c2cccs2)NC(=O)c2cccs2)CC1 | inconclusive: -53.8% |
| CCOc1ccc(CN2CCCC(N3CCN(c4ccc(OC)cc4)CC3)C2)cc1 (centres undefined) | inactive: -10.4% |
| Cn1nc(-c2ccccc2F)c2cc(C(=O)N3CCN(c4ccccc4F)CC3)sc21 | inactive: -27.5% |

Looked up one by one from the entries so far (4):

| SMILES | activity change, negative = inhibition |
| --- | --- |
| Cc1cc(C)c(C)c(S(=O)(=O)Nc2ccc(C(N)=O)cc2)c1C | inconclusive: -50.7% |
| Cc1ccccc1OCC(=O)Nc1ccc2nc(SCC(=O)N3CCOCC3)sc2c1 | active: -78.2% |
| O=C(O)c1cnn(-c2nc(-c3cccc([N+](=O)[O-])c3)cs2)c1C(F)(F)F | active: -93.8% |
| COc1ccc(CCNC(=O)c2cnc3ccccn3c2=O)cc1 | inactive: 48.8% |

The list continues.

| SMILES | activity change, negative = inhibition |
| --- | --- |
| Cc1c(NC(=O)Cc2ccccc2)cccc1-c1nc2cccnc2s1 | active: -66.4% |
| O=C1COc2ccc(S(=O)(=O)Nc3ccc(OC(F)(F)F)cc3)cc2N1 | inconclusive: -43.1% |
| CCCCOc1ccc(C(=O)Nc2ccc3c(c2)N(C(C)=O)CCC3)cc1 | inconclusive: -51.9% |
| Cc1ccc(C(=O)N2CCN(c3ccc(NC(=O)Cc4ccccc4)cc3)CC2)cc1 | inconclusive: -42.7% |
| Cc1cc(-c2ccc(Cl)s2)n[nH]1 | inactive: -20.9% |
| CCOc1cc(CNc2ccc(O)cc2)cc(Cl)c1OCc1ccccc1 | inconclusive: -45.3% |
| COc1ccc(-n2c(=S)[nH]c3[nH]ncc3c2=O)cc1 | inactive: 18.8% |
| Cc1cc(C)nc(NC(=O)c2c(-c3ccccc3Cl)noc2C)c1 | inactive: -0.703% |
| Cc1ccc(NC(=O)c2ccc([N+](=O)[O-])cc2)cc1S(=O)(=O)N(C)C | inconclusive: -51% |
| CCOC(=O)/C(=C/c1c(C)n(C)c2ccc([N+](=O)[O-])cc12)C(C)=O | active: -85.4% |
| COc1ccc(CC(=O)Cc2ccc(OC)c(OC)c2)cc1OC | inactive: -4.01% |
| CC1(C)NC(=S)NC1=S | active: -99.6% |
| Cc1ccc(NC(=O)Cc2n[nH]c(=O)c3ccccc23)cc1S(=O)(=O)N1CCCCCC1 | active: -69.3% |
| COC(=O)C[C@H]1CC[C@H](NC(=O)Nc2ccccc2F)[C@@H](CO)O1 | inactive: -1.84% |
| CCOC(=O)C1C2C=CC3(CN(Cc4ccccc4)C(=O)C13)O2 (centres undefined) | inactive: 7.95% |
| CCOC(=O)Cc1nnc(Nc2ccc(C)cc2C)c2ccccc12 | active: -60% |
| CCOc1ccccc1N1Cc2ccccc2C1 | inactive: 31.6% |
| CCOc1ccc(NC(=O)CCn2c(=O)[nH]c3ccsc3c2=O)cc1 | inactive: -9.94% |
| O=C(N/N=C/c1ccc(-c2cccc(C(F)(F)F)c2)o1)c1cccc(F)c1 | inconclusive: -44.9% |

Reference: PubChem BioAssay AID1259415 (National Center for Advancing Translational Sciences (NCATS), 2018)
